The other results are listed elsewhere or left out.
Experiments:
Test in all cases: log2 fold change, soluble protein after heating vs DMSO (PISA); higher = thermal stabilisation; K562 lysate, 10 uM; active = over 0.2 and 3.5 SD of the protein, either way, in both replicates (recomputed)
lapatinib = compound: CS(=O)(=O)CCNCc1ccc(-c2ccc3ncnc(Nc4ccc(OCc5cccc(F)c5)c(Cl)c4)c3c2)o1 [lapatinib]
How it was run: (§1)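 Thermal stability, expressed as log-two fold change relative to solvent controls, is given from duplicates. Crude K562 extract in PBS pH 7.4 with 1 mM MgCl2, at 1 mg/mL protein, was treated with 10 μM compound for 30 min and heated in aliquots for 3 min across 48°C-58°C. After pooling, adjustment to 0.5% NP-40 at 4°C and centrifugation at 21,000xg for 90 min, supernatant protein was measured by TMTpro 16plex LC-MS/MS with channel sums equalised.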

By UniProt entry, the sequences of proteins in these tests, tags left out. Where a name states a change or a piece, a line headed by the entry shows the natural chain unless it says otherwise.
UniProt Q8IYW5, whole entry, looked up: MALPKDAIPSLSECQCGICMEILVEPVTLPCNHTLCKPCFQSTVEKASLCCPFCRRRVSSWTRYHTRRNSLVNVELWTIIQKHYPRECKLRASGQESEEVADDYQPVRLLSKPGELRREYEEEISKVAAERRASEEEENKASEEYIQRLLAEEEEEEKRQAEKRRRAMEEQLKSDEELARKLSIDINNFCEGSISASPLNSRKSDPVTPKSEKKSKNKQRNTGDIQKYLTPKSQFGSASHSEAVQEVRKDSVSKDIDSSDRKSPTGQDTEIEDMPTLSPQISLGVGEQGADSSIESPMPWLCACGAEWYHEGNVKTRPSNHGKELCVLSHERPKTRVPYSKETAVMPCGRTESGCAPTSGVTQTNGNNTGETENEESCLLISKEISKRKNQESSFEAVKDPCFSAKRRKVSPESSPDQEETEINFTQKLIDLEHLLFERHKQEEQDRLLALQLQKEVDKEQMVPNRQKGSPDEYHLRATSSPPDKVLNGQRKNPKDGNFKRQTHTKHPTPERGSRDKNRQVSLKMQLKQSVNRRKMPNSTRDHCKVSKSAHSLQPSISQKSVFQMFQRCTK
UniProt Q96TC7: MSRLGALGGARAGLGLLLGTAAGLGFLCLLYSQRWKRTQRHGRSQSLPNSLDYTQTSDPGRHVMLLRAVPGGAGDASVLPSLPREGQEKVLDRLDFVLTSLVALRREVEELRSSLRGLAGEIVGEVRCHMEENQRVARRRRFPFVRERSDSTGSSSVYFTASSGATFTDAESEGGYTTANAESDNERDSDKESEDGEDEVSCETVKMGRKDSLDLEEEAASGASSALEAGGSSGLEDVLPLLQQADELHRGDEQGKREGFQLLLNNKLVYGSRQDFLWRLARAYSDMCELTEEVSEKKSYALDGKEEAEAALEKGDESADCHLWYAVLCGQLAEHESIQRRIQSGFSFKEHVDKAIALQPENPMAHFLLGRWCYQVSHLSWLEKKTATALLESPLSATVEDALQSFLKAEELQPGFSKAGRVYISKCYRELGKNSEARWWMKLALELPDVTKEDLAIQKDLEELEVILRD
UniProt Q9BWH6: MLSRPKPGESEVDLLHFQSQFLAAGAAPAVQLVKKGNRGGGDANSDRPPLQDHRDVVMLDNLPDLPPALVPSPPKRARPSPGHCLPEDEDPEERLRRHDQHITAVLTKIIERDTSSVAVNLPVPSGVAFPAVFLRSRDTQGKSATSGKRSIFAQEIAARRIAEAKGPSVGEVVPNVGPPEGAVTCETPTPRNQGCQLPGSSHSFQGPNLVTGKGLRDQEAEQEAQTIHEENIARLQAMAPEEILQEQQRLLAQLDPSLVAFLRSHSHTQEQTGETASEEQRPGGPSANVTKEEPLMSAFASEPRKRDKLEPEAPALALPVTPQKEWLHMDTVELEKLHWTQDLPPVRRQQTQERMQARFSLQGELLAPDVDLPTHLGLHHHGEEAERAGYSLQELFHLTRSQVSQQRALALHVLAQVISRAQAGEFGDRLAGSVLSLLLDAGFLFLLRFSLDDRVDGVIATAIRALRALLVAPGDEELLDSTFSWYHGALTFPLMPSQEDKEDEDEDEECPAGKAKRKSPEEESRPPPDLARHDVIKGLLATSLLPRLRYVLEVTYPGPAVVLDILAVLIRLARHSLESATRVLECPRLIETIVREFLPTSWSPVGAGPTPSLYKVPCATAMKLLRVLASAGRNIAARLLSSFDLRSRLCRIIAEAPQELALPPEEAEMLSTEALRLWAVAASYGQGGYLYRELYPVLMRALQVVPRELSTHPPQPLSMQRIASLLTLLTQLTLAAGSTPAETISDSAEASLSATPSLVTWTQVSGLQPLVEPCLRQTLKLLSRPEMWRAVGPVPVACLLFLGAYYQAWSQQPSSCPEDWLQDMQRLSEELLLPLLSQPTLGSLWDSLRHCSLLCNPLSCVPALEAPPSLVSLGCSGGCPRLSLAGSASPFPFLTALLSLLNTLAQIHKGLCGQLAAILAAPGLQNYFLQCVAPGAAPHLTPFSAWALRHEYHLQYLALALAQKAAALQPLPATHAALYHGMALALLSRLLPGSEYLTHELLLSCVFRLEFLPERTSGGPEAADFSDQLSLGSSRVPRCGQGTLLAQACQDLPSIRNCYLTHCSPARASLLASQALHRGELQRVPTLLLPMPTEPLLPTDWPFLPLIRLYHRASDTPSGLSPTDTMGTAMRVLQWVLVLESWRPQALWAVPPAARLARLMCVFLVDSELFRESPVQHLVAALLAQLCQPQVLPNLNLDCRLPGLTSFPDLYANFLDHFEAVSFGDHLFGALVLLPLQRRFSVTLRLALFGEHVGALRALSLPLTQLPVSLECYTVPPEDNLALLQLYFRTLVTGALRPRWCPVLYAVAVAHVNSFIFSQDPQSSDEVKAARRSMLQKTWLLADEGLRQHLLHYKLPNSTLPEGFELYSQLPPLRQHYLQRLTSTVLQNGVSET
UniProt Q06587: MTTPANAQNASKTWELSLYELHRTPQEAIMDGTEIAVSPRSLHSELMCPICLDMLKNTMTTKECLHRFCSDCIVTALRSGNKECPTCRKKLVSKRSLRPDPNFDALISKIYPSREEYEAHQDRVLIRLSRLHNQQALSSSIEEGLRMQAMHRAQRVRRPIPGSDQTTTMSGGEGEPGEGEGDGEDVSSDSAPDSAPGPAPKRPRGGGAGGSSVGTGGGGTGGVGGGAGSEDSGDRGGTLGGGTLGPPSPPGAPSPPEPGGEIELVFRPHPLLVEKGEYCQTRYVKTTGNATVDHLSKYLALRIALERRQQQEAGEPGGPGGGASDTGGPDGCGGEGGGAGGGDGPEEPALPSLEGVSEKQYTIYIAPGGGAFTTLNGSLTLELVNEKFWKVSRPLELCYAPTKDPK
UniProt P62745, whole entry, looked up: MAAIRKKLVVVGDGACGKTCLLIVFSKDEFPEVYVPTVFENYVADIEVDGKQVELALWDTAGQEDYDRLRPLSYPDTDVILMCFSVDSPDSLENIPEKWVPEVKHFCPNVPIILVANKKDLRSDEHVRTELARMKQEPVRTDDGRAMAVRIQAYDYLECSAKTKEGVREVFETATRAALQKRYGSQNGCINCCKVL
UniProt Q5EBL4: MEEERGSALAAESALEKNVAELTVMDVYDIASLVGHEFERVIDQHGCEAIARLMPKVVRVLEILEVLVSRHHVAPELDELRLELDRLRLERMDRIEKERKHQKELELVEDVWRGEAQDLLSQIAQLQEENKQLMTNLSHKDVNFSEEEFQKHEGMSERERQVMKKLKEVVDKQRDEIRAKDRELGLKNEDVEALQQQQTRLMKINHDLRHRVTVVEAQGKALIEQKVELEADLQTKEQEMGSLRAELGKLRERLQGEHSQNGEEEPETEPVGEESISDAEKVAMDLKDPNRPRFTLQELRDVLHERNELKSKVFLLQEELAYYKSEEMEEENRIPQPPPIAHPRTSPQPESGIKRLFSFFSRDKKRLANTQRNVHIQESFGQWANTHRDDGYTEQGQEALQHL
UniProt Q13464: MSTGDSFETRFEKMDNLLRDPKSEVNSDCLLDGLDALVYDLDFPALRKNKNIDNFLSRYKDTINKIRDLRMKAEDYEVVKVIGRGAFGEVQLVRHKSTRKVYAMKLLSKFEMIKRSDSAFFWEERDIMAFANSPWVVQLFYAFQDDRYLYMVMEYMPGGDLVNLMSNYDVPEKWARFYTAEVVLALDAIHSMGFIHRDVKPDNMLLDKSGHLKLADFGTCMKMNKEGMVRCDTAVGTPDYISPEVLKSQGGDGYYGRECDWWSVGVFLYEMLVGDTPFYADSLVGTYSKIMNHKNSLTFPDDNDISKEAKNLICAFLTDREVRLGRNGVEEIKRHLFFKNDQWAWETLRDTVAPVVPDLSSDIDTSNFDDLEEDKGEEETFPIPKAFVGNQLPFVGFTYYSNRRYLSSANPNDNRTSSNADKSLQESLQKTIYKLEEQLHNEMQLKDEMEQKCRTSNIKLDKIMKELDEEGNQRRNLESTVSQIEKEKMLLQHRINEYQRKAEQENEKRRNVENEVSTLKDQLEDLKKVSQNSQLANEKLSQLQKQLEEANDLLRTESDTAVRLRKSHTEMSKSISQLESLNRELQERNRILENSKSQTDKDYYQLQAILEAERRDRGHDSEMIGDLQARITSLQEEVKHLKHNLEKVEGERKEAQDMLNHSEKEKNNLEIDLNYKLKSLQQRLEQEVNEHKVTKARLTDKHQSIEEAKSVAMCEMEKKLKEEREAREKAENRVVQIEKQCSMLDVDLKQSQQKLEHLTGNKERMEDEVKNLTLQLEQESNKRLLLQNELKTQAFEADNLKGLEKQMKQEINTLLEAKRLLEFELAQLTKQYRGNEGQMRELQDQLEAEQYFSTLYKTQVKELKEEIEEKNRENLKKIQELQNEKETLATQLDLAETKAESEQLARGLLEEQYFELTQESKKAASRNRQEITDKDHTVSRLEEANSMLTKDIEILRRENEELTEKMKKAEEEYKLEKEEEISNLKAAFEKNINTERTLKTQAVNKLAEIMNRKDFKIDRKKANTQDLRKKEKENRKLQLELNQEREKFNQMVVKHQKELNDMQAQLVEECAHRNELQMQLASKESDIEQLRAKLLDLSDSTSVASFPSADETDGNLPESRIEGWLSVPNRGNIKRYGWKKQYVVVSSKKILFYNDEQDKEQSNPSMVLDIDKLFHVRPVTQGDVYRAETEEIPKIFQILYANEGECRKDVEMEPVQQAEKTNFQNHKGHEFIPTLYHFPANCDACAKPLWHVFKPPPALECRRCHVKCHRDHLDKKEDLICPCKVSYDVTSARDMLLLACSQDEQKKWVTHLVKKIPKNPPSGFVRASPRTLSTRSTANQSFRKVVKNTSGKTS
UniProt Q8ND24: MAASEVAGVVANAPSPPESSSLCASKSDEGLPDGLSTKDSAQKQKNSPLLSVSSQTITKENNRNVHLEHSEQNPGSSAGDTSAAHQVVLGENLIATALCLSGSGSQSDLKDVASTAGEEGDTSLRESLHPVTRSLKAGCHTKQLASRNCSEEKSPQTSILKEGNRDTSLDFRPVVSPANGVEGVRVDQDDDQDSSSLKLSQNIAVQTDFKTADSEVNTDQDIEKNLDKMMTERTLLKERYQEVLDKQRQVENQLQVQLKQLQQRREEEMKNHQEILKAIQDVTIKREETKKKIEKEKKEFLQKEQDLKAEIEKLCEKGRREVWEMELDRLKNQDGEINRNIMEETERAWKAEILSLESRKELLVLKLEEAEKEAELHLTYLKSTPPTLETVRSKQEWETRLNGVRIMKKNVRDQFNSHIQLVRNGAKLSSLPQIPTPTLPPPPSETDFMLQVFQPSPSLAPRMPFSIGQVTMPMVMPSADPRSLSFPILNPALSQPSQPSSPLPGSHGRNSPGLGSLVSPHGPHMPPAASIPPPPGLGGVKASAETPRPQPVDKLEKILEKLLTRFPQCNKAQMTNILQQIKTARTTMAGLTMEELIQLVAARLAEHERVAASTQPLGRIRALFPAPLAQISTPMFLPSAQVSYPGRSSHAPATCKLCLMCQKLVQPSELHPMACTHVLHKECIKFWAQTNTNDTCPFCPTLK
UniProt Q9H4A4: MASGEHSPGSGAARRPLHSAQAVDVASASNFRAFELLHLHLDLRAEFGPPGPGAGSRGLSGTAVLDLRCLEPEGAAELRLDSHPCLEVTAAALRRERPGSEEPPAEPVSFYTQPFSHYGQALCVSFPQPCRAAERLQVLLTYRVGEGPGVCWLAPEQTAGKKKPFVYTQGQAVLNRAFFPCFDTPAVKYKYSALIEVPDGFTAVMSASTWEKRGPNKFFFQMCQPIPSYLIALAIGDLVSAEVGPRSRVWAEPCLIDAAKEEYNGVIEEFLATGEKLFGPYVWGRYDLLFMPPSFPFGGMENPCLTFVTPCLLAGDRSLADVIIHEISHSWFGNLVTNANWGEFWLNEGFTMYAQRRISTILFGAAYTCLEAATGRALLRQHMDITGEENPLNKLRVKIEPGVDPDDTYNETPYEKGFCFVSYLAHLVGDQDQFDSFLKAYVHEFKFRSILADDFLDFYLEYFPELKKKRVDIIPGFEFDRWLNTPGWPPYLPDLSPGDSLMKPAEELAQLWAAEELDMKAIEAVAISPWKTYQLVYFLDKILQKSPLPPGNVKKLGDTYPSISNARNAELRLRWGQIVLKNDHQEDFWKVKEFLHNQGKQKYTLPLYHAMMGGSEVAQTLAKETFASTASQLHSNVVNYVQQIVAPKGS
UniProt Q96AT9: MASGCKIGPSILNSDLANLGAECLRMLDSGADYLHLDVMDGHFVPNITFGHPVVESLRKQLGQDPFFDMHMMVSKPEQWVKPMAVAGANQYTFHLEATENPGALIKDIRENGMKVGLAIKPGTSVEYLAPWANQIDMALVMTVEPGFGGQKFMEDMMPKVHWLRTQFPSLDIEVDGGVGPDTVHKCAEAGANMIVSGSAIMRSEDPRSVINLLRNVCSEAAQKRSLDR
UniProt Q96GF1: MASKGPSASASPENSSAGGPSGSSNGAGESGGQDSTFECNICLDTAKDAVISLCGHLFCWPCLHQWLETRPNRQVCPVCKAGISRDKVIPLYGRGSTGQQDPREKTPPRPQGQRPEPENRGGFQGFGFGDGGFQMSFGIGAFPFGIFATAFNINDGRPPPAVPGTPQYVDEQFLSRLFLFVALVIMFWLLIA

pictilisib = compound: CS(=O)(=O)N1CCN(Cc2cc3nc(-c4cccc5[nH]ncc45)nc(N4CCOCC4)c3s2)CC1 [pictilisib]
How it was run: as §1

crizotinib = compound: C[C@@H](Oc1cc(-c2cnn(C3CCNCC3)c2)cnc1N)c1c(Cl)ccc(F)c1Cl [crizotinib]
How it was run: as §1

[1] = compound: C[C@H](C1=CC=C(C=C1)C(=O)NC2=C3C=CNC3=NC=C2)N
How it was run: as §1

duvelisib = compound: C[C@H](Nc1ncnc2nc[nH]c12)c1cc2cccc(Cl)c2c(=O)n1-c1ccccc1 [duvelisib]
How it was run: as §1

gandotinib = compound: Cc1cc(Nc2cc(CN3CCOCC3)c3nc(C)c(Cc4ccc(Cl)cc4F)n3n2)n[nH]1 [gandotinib]
How it was run: as §1

tozasertib = compound: Cc1cc(Nc2cc(N3CCN(C)CC3)nc(Sc3ccc(NC(=O)C4CC4)cc3)n2)n[nH]1 [tozasertib]
How it was run: as §1

doramapimod = compound: Cc1ccc(-n2nc(C(C)(C)C)cc2NC(=O)Nc2ccc(OCCN3CCOCC3)c3ccccc23)cc1 [doramapimod]
How it was run: as §1

bafetinib = compound: Cc1ccc(NC(=O)c2ccc(CN3CC[C@H](N(C)C)C3)c(C(F)(F)F)c2)cc1Nc1nccc(-c2cncnc2)n1 [bafetinib]
How it was run: as §1

[2] = compound: Cc1cccc(CC(=O)N2CCc3c2ccc(-c2cn(C)c4ncnc(N)c24)c3F)n1
How it was run: as §1

nilotinib = compound: Cc1cn(-c2cc(NC(=O)c3ccc(C)c(Nc4nccc(-c5cccnc5)n4)c3)cc(C(F)(F)F)c2)cn1 [nilotinib]
How it was run: as §1

[3] = compound: Cc1nc(Nc2n[nH]c3c2CN(C(=O)N[C@H](CN(C)C)c2ccccc2)C3(C)C)c2sccc2n1
How it was run: as §1

dasatinib = compound: Cc1nc(Nc2ncc(C(=O)Nc3c(C)cccc3Cl)s2)cc(N2CCN(CCO)CC2)n1 [dasatinib]
How it was run: as §1

[4] = compound: Cc1ncc(-c2ccnc(Nc3ccc(S(C)(=O)=O)cc3)n2)n1C(C)C
How it was run: as §1

[5] = compound: Cn1cc(-c2ccc3c(c2)CCN3C(=O)Cc2cccc(C(F)(F)F)c2)c2c(N)ncnc21
How it was run: as §1

quisinostat = compound: Cn1cc(CNCC2CCN(c3ncc(C(=O)NO)cn3)CC2)c2ccccc21 [quisinostat]
How it was run: as §1

tipifarnib = compound: Cn1cncc1[C@@](N)(c1ccc(Cl)cc1)c1ccc2c(c1)c(-c1cccc(Cl)c1)cc(=O)n2C [tipifarnib]
How it was run: as §1

[6] = compound: NC(=O)Nc1cc(-c2cccc(F)c2)sc1C(=O)N[C@H]1CCCNC1
How it was run: as §1

[7] = compound: NC(=O)c1cnc(N[C@@H]2CCCC[C@@H]2N)nc1Nc1cccc(-n2nccn2)c1
How it was run: as §1

[8] = compound: NC1(c2ccc(-c3nc4ccn5c(=O)[nH]nc5c4cc3-c3ccccc3)cc2)CCC1
How it was run: as §1

Target	log2 fold change (lapatinib)	log2 fold change (pictilisib)	log2 fold change (crizotinib)	log2 fold change [1]	log2 fold change (duvelisib)	log2 fold change (gandotinib)	log2 fold change (tozasertib)	log2 fold change (doramapimod)	log2 fold change (bafetinib)	log2 fold change [2]	log2 fold change (nilotinib)	log2 fold change [3]	log2 fold change (dasatinib)	log2 fold change [4]	log2 fold change [5]	log2 fold change (quisinostat)	log2 fold change (tipifarnib)	log2 fold change [6]	log2 fold change [7]	log2 fold change [8]
RNF168 (UniProt Q8IYW5)	inactive: -0.034	inactive: 0.063	inactive: 0.027	inactive: -0.015	inactive: 0.037	inactive: 0.002	inactive: -0.088	inactive: -0.008	inactive: -0.212	inactive: -0.036	inactive: 0.144	inactive: 0.085	inactive: 0.064	inactive: -0.186	inactive: 0.006	inactive: -0.019	inactive: 0.016	inactive: -0.009	inactive: -0.02	inactive: 0.018
RNF170 (UniProt Q96K19)	inactive: -0.011	inactive: -0.332	–	inactive: -0.042	inactive: -0.229	inactive: -0.198	–	–	inactive: 0.024	active: 1.2	inactive: -0.04	inactive: 0	inactive: -0.008	inactive: 0.043	inactive: -0.028	–	inactive: -0.3	–	inactive: -0.07	inactive: 0.073
RMDN3 (UniProt Q96TC7)	inactive: -0.019	inactive: -0.02	inactive: -0.059	inactive: -0.067	inactive: 0.012	inactive: 0.031	inactive: 0.051	inactive: 0.055	inactive: -0.027	inactive: 0.093	inactive: 0.017	inactive: 0.009	inactive: 0.012	inactive: 0.024	inactive: 0.03	inactive: -0.016	inactive: -0.025	inactive: 0.024	inactive: -0.008	inactive: 0
RMND1 (UniProt Q9NWS8)	inactive: 0.02	inactive: -0.073	inactive: -0.021	inactive: -0.059	inactive: -0.077	inactive: 0.01	inactive: 0.06	inactive: -0.071	inactive: -0.07	inactive: 0.024	inactive: -0.001	inactive: 0.064	inactive: 0.014	inactive: -0.002	inactive: 0.034	inactive: 0.048	inactive: 0.071	inactive: 0.028	inactive: 0.069	inactive: 0.032
RPAP1 (UniProt Q9BWH6)	inactive: -0.012	inactive: -0.027	inactive: -0.026	inactive: -0.026	inactive: 0.021	inactive: -0.002	inactive: 0.018	inactive: 0.001	inactive: -0.041	inactive: 0	inactive: -0.002	inactive: 0.014	inactive: -0.027	inactive: -0.01	inactive: 0.032	inactive: -0.02	inactive: -0.01	inactive: 0.013	inactive: 0.029	inactive: 0.004
RING1 (UniProt Q06587)	inactive: -0.008	inactive: -0.024	inactive: -0.035	inactive: -0.048	inactive: -0.007	inactive: 0.052	inactive: 0.005	inactive: -0.035	inactive: 0.04	inactive: 0.061	inactive: 0.033	inactive: -0.003	inactive: -0.004	inactive: 0.067	inactive: 0.009	inactive: 0.051	inactive: -0.042	inactive: 0.006	inactive: -0.04	inactive: 0.027
RHOB (UniProt P62745)	inactive: 0.041	inactive: 0.061	inactive: -0.041	inactive: -0.021	inactive: 0.298	inactive: 0.017	inactive: -0.116	inactive: 0.096	inactive: 0.114	inactive: -0.028	inactive: 0.076	inactive: -0.248	inactive: -0.03	inactive: -0.167	inactive: 0.09	inactive: 0.02	inactive: -0.047	inactive: -0.027	inactive: 0.049	inactive: 0.036
RILPL1 (UniProt Q5EBL4)	inactive: -0.009	inactive: -0.026	inactive: -0.009	inactive: -0.042	inactive: 0.031	inactive: 0.028	inactive: -0.003	inactive: -0.012	inactive: -0.017	inactive: 0.007	inactive: 0.015	inactive: -0.014	inactive: 0.002	inactive: -0.014	inactive: 0.031	inactive: -0.023	inactive: -0.007	inactive: 0.002	inactive: 0.021	inactive: -0.004
RPL12 (UniProt P30050)	inactive: -0.008	inactive: 0.02	inactive: -0.035	inactive: 0.035	inactive: 0.038	inactive: -0.059	inactive: -0.011	inactive: 0.016	inactive: -0.016	inactive: -0.014	inactive: 0.003	inactive: -0.046	inactive: 0.01	inactive: -0.042	inactive: -0.027	inactive: 0	inactive: 0.01	inactive: -0.053	inactive: 0.009	inactive: 0.022
ROCK1 (UniProt Q13464)	inactive: -0.003	inactive: -0.021	inactive: 0.011	–	inactive: 0.006	inactive: -0.04	inactive: 0.027	inactive: -0.025	inactive: -0.016	inactive: 0.031	inactive: -0.013	inactive: -0.001	inactive: -0.004	inactive: 0.006	inactive: 0.011	inactive: -0.01	inactive: 0.001	–	inactive: 0.009	inactive: 0.013
RNMT isoform 2 (UniProt O43148)	inactive: -0.005	inactive: 0.001	inactive: -0.03	inactive: -0.009	inactive: -0.028	inactive: 0.008	inactive: 0.001	inactive: 0.002	inactive: 0.011	inactive: 0.016	inactive: 0.006	inactive: 0.008	inactive: 0	inactive: 0.033	inactive: 0.029	inactive: 0.001	inactive: -0.019	inactive: 0.013	inactive: 0.014	inactive: 0.009
RNF214 (UniProt Q8ND24)	inactive: 0.036	inactive: -0.019	inactive: 0.107	inactive: -0.008	inactive: -0.046	inactive: 0.026	inactive: -0.004	inactive: 0.035	inactive: -0.022	inactive: 0.028	inactive: -0.014	inactive: -0.003	inactive: -0.038	inactive: 0.012	inactive: 0	inactive: 0.029	inactive: -0.029	inactive: -0.008	inactive: 0.008	inactive: 0.038
RNPEP (UniProt Q9H4A4)	inactive: 0.019	inactive: 0.002	inactive: -0.006	inactive: -0.004	inactive: -0.009	inactive: 0.004	inactive: -0.013	inactive: 0.009	inactive: 0.07	inactive: 0.017	inactive: 0.01	inactive: 0.021	inactive: 0.051	inactive: -0.021	inactive: -0.012	inactive: -0.007	inactive: 0	inactive: -0.008	inactive: 0.014	inactive: -0.011
RO60 (UniProt P10155)	inactive: -0.011	inactive: -0.043	inactive: 0.017	inactive: 0.039	inactive: 0.009	inactive: -0.042	inactive: -0.018	inactive: -0.035	inactive: 0.019	inactive: -0.08	inactive: 0.006	inactive: 0.003	inactive: 0.04	inactive: -0.007	inactive: 0.01	inactive: 0.031	inactive: 0.002	inactive: -0.012	inactive: -0.014	inactive: 0.011
RPE (UniProt Q96AT9)	inactive: 0.082	inactive: -0.07	inactive: 0.034	inactive: 0.091	inactive: 0.066	inactive: -0.112	inactive: -0.013	inactive: -0.031	inactive: 0.25	inactive: -0.03	inactive: 0.112	inactive: -0.029	inactive: -0.013	inactive: 0.05	inactive: 0.012	inactive: 0.016	inactive: -0.083	inactive: -0.036	inactive: -0.073	inactive: -0.017
RNF185 (UniProt Q96GF1)	inactive: 0.02	inactive: -0.021	–	inactive: 0.06	–	inactive: -0.068	–	–	inactive: -0.088	inactive: 0	inactive: 0.015	inactive: 0.033	–	inactive: 0.003	–	–	inactive: -0.038	–	inactive: -0.053	inactive: -0.06
RINL (UniProt Q6ZS11)	inactive: -0.1	inactive: 0.065	–	inactive: -0.145	inactive: -0.123	inactive: -0.218	inactive: 0.325	–	inactive: -0.009	inactive: 0.096	inactive: 0.049	inactive: -0.271	inactive: -0.008	inactive: -0.02	inactive: 0.012	–	inactive: -0.209	–	inactive: -0.047	inactive: 0.021

A few values from the list.
log2 fold change [2] with RO60 (UniProt P10155) is entered as inactive: -0.08
log2 fold change [5] with RNF170 (UniProt Q96K19) is entered as inactive: -0.028
